{
  "source": "patent US20050256179A1",
  "about": "“Selective pharmacologic inhibition of protein trafficking and related methods of treating human diseases” (priority 2003, published 2005)",
  "system": "Mannosidase II",
  "assay": "Mannosidase II immunocytochemistry",
  "type": "cell-based",
  "details": "1 hr of treatment",
  "procedure": "GS15, GS28, GPP130, and Mannosidase II, sparing the golgi structural protein GM-130 and having little effect on the Rab GTPase Rab6. Furthermore, these affects were most pronounced following overnight (16-20 hr) incubations with AVP 893, although some affects at early time points were seen. These conclusions were drawn from the western blot analysis (FIG. 29), as well as from the immunocytochemical studies (FIGS. 30-31).\nAdditional evidence that AVP 893 has unique activity against resident golgi proteins (e.g. Mannosidase II), was found using both shorter durations of drug exposure and immunocytochemistry instead of western blot analysis (FIG. 43).",
  "note": "At least one compound was matched to its structure with a doubt left.",
  "data": [
    {"smiles": "COC(=O)Nc1nc2ccc(C(=O)c3cccs3)cc2n1C", "note": "[nocodozole, reference compound]", "values": [
      {"measurement": "Mannosidase II staining pattern", "result": "spread into a myriad of small, punctate fragments"}
    ]}
  ]
}
